The values below come from publication PMC11747885, “Potent inhibitors of the human RNA ligase Rlig1 highlights its role in RNA integrity maintenance under oxidative cellular stress” (Chemical Science, 2025).

Values joined by “and” are separate entries in the source; they are usually repeats but may differ in a detail not shown here. Identical values can stand only once. This continues a long series; more values of the same kind are listed elsewhere.

The test system of this experiment is HEK293 cells. Nature of the experiment: Cell viability assay of HEK293 cells treated with inhibitors and menadione. In kind it is cell-based, human. The note with it: w/o Menadione.
The mark [1] stands for this setting: 15 µM compound, 20240508 plate 012.
[2] abbreviates: 15 µM compound, 20240508 plate 013.
Setting [3] is: 15 µM compound, 20240515 plate 014.
Setting [4] is: 15 µM compound, 20240515 plate 015.
[5] abbreviates: 30 µM compound, 20240508 plate 013.
Setting [6] is: 30 µM compound, 20240515 plate 014.
[7] abbreviates: 30 µM compound, 20240515 plate 015.

As to `Nc1nccc(Nc2ccc(NC(=O)c3ccc(Nc4ccnc5ccccc45)cc3)cc2)n1` [Compound 26], the “Cell viability raw signal, technical replicates” value (shortened to “Cell viability raw signal”) by setting is: under setting [1], 295160 and 291000 and 306610 and 315750; under setting [2], 318330 and 382250 and 331430 and 341500; under setting [3], 250630 and 277070 and 278420 and 291070; under setting [4], 225790 and 244140 and 209910 and 233720; (30 µM compound, 20240508 plate 012) 178520 and 177190 and 190990 and 182770; under setting [5], 197380 and 188480 and 192620 and 197570. In addition, the “Cell viability raw signal” value under setting [6] is 195430 and 197940 and 209200 and 205950.
As for `Cc1cc(Nc2ccc(NC(=O)c3ccc(Nc4ncnc5ccccc45)cc3)cc2)nc(N)n1` [Compound 45], the “Cell viability raw signal” value was 375940 and 362170 and 356400 and 364260 under setting [2]; 329510 and 330750 and 330400 and 339930 under setting [3]; 350650 and 339230 and 350070 and 339430 under setting [4].
In the case of `Nc1nccc(Nc2ccc(NC(=O)c3ccc(Nc4ncnc5ccccc45)cc3)cc2)n1` [Compound 47], the “Cell viability raw signal” value under setting [1] was 442020 and 407540 and 412630 and 398890; the “Cell viability raw signal” value under setting [2] is 390150 and 392520 and 393400 and 396640; the “Cell viability raw signal” value under setting [3] was 350590 and 367550 and 349910 and 369710; the “Cell viability raw signal” value under setting [4] was 355740 and 361450 and 338520 and 364520; the “Cell viability raw signal” value under setting [5] was 326280 and 331870 and 354040 and 345370; the “Cell viability raw signal” value under setting [6] is 327440 and 313220 and 342900 and 327190. Besides, under setting [7], the “Cell viability raw signal” value is 308600 and 311450 and 325210 and 325320.
As for `Nc1cc(Nc2ccc(NC(=O)c3ccc(Nc4ccnc5ccccc45)cc3)cc2)ccn1` [Compound 36], the “Cell viability raw signal” value runs as follows: under setting [1], 390930 and 375230 and 448500 and 443430; under setting [2], 394180 and 392840 and 391700 and 389320; under setting [3], 392830 and 387940 and 370750 and 396460; under setting [4], 354410 and 435540 and 345790 and 416620; under setting [5], 362770 and 369030 and 365650 and 461440; under setting [6], 354280 and 363230 and 371180 and 376730. In addition, the “Cell viability raw signal” value under setting [7] was 326510 and 332180 and 340410 and 339810.
